Laboratory results: PubChem BioAssay AID1671195 (Yale University, 2021)

Purpose: 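Knockdowns that increase or decrease uptake of fluorescent LDL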 (primary screen)
Cell system: human Huh7 hepatoma cells
Reagents: siRNA pool against human genes, 18 nM
Timing: about 2 to 2.5 days of knockdown, then 8 h LDL uptake
Treatment: DiI-labelled LDL at 30 µg/ml for 8 h, in lipoprotein-deficient serum medium
Measurement: 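Per-cell DiI-LDL intensity by automated imaging; well means scaled to the plate median and given as a robust z-score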
Direction: robust z-score: higher = more LDL uptake after knockdown
Hit rule: 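Active when two or more replicates show a robust z-score above 2 or below -2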
Shown is one part, drawn at random, of about 22,000 reagents tested. About 1,510 of them (6.9%) count as active. 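Active includes knockdowns raising or lowering LDL uptake; positive z-scores mean more uptake, negative mean less.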 Entries without a mark were called inactive.

The opening 2 records, to show the layout:
| gene knocked down | robust z-score, replicate 1 | robust z-score, replicate 2 | robust z-score, replicate 3 |
| --- | --- | --- | --- |
| FMNL2 (GeneID 114793) | 0.951 | 0.102 | -0.0794 |
| BPTF (GeneID 2186) | 4.63 (active) | 1.97 | 4.1 |

Results, from the first entry:
| gene knocked down | robust z-score, replicate 1 | robust z-score, replicate 2 | robust z-score, replicate 3 |
| --- | --- | --- | --- |
| FMNL2 (GeneID 114793) | 0.951 | 0.102 | -0.0794 |
| BPTF (GeneID 2186) | 4.63 (active) | 1.97 | 4.1 |
| SLC25A23 (GeneID 79085) | 2.35 | -0.152 | -2.16 |
| KERA (GeneID 11081) | 0.395 | 0.597 | 0.323 |
| TFB1M (GeneID 51106) | 1.95 | 2.54 | 1.84 |
| PCDHA9 (GeneID 9752) | 2.33 (active) | 2.5 | 1.89 |
| MVK (GeneID 4598) | -0.108 | -0.655 | -0.611 |
| EVA1A (GeneID 84141) | 0.428 | 0.561 | 0.364 |
| RREB1 (GeneID 6239) | -1.1 | -1.52 | -0.84 |
| ZMYM2 (GeneID 7750) | 2.75 | -0.00903 | 0.884 |
| C2CD4C (GeneID 126567) | 1.63 | 1.71 | 2.14 |
| CATSPERB (GeneID 79820) | -0.404 | 0.273 | -0.222 |
| MMP21 (GeneID 118856) | -0.476 | -0.203 | 1.21 |
| ASPHD2 (GeneID 57168) | -0.432 | -0.267 | 0.127 |
| PCDHA13 (GeneID 56136) | -1.23 | -1.08 | -0.935 |
| GGNBP2 (GeneID 79893) | 1.98 | 1.65 | 1.64 |
| RELCH (GeneID 57614) | -1.27 | -0.0774 | -0.515 |
| ZYG11B (GeneID 79699) | 1.18 | 0.663 | 0.982 |
| MRRF (GeneID 92399) | -0.319 | -1.58 | -1.27 |
| ZNF214 (GeneID 7761) | 0.283 | 1 | 0.639 |
| NOP9 (GeneID 161424) | -0.786 | -0.745 | -0.0856 |
| LOC441158 (retired record) (GeneID 441158) | -0.0794 | -0.562 | -0.313 |
| MFSD6L (GeneID 162387) | -0.373 | 1.13 | -0.255 |
| LINC01777 (GeneID 284661) | -0.138 | -0.584 | -0.637 |
| SLC25A40 (GeneID 55972) | 0.127 | -0.353 | -0.577 |
| PARP9 (GeneID 83666) | 0.033 | 0.496 | -0.226 |
| LOC441861 (retired record) (GeneID 441861) | -1.48 | -1.35 | -1.57 |
| NAV1 (GeneID 89796) | 1.89 | 1.81 | 2.16 |
| LOC440092 (retired record) (GeneID 440092) | -1.89 | -1.67 | -1.77 |
| MORN3 (GeneID 283385) | 0.163 | 0.586 | 0.464 |
| FDX2 (GeneID 112812) | 0.689 | 1.31 | 1.29 |
| OR2A25 (GeneID 392138) | 0.366 | 0.037 | 0.103 |
| PRKAR1B (GeneID 5575) | -0.255 | -0.629 | -0.784 |
| PDE4B (GeneID 5142) | 0.603 | -1.64 | 0.595 |
| SMURF1 (GeneID 57154) | -0.254 | 0.12 | -1.13 |
| ZNF675 (GeneID 171392) | -0.0638 | -0.0229 | 0.458 |
| PCDHGA4 (GeneID 56111) | -0.671 | -0.759 | -0.539 |
| TSHZ3 (GeneID 57616) | 0.533 | 1.39 | 0.483 |
| APOBEC3B (GeneID 9582) | 0.0115 | -0.799 | -0.478 |
| FLRT1 (GeneID 23769) | 1.47 | 0.147 | 0.643 |
| SKA2 (GeneID 348235) | -1.11 | -1.02 | -0.805 |
| RNF149 (GeneID 284996) | 0.0214 | -0.316 | -0.374 |
| LARGE2 (GeneID 120071) | 0.466 | 0.164 | -0.566 |
| ATP5F1B (GeneID 506) | 0.0905 | 0.561 | -0.293 |
| CPA5 (GeneID 93979) | -0.878 | -1.09 | -1.06 |
| NUDCD2 (GeneID 134492) | -1.05 | 0.358 | 0.261 |
| RPAP2 (GeneID 79871) | -1.47 | -1.43 | -1.71 |
| C1QL3 (GeneID 389941) | -0.251 | -0.117 | -0.372 |
| BSPRY (GeneID 54836) | 0.259 | 0.573 | 0.508 |
| FLJ31183 (retired record) (GeneID 401225) | 0.559 | 0.18 | 0.322 |
| MAST3 (GeneID 23031) | -1.27 | -1.18 | -1.12 |
| RPS27AP5 (GeneID 100271374) | 1.09 | 0.387 | 1.06 |
| YTHDC1 (GeneID 91746) | -0.391 | -0.341 | -0.674 |
| STYK1 (GeneID 55359) | 0.406 | 0.227 | 0.89 |
| AK3 (GeneID 50808) | 1.23 | 1.53 | 0.129 |
| CSNK1E (GeneID 1454) | -0.226 | 0.875 | -0.0705 |
| COL4A3 (GeneID 1285) | -0.556 | -1.67 | -1.5 |
| CLEC12A (GeneID 160364) | -0.108 | 0.589 | -0.0865 |
| DCTN5 (GeneID 84516) | -1.75 | -1.26 | -1.01 |
| POLR2F (GeneID 5435) | -1.76 (active) | -2.06 | -1.67 |
| NINJ2 (GeneID 4815) | -0.565 | 0.674 | 0.772 |
| VAX1 (GeneID 11023) | 1.86 | 1.43 | 1.11 |
| WFDC11 (GeneID 259239) | -0.283 | -0.133 | -0.262 |
| SEC61B (GeneID 10952) | -2.96 | -0.517 | -1.31 |
| LOC391322 (GeneID 391322) | -1.68 | -1.38 | -1.76 |
| LOC442534 (retired record) (GeneID 442534) | -0.173 | 0.765 | 0.778 |
| TIGD2 (GeneID 166815) | -0.143 | 0.383 | -0.253 |
| NEDD9 (GeneID 4739) | -0.249 | -0.211 | 0.641 |
| SPANXN2 (GeneID 494119) | -0.366 | -0.237 | -0.189 |
| CYLD (GeneID 1540) | 1.36 | -0.597 | 0.572 |
| CHN2 (GeneID 1124) | -0.99 | -0.781 | -0.475 |
| BRS3 (GeneID 680) | 0.348 | -0.558 | -0.73 |
| FLJ26086 (retired record) (GeneID 440129) | 0.28 | -0.274 | 0.0743 |
| INPP5F (GeneID 22876) | -1.44 | -0.688 | -1.11 |
| TLCD3B (GeneID 83723) | 0.433 | 1.26 | 0.794 |
| C4BPA (GeneID 722) | 1.3 | 0.117 | 1.61 |
| LRRC74A (GeneID 145497) | 0.14 | -0.381 | -0.0778 |
| GRK3 (GeneID 157) | 0.778 | 1.22 | 0.663 |
| CIBAR2 (GeneID 339145) | 1.57 | 1.3 | 1.52 |
| SCN1B (GeneID 6324) | 0.545 | 0.726 | 0.646 |
| MITF (GeneID 4286) | 1.67 | 0.525 | 1.33 |
| LOC400890 (retired record) (GeneID 400890) | 0.0849 | -0.0272 | -0.187 |
| LOC442059 (retired record) (GeneID 442059) | 0.827 | 0.672 | -0.267 |
| ITGAX (GeneID 3687) | 2.44 | 0.79 | 0.943 |
| ARL15 (GeneID 54622) | 1.03 | 0.356 | 0.336 |
| ADIPOR2 (GeneID 79602) | -0.823 | -0.892 | -0.732 |
| ERBIN (GeneID 55914) | 0.0633 | -0.254 | 0.618 |
